# Data from the supplement of paper PMC6411743.
# Sequences of proteins named here, by UniProt entry; tags and fusion partners are left off. A change or cut given only in a name is not applied to a line headed by its entry.
# UniProt O43324: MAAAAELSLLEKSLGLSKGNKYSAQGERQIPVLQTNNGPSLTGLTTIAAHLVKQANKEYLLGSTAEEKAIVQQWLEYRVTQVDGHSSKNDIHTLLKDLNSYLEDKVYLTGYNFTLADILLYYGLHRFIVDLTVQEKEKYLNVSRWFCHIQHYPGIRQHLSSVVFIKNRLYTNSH
# UniProt O15212, whole entry: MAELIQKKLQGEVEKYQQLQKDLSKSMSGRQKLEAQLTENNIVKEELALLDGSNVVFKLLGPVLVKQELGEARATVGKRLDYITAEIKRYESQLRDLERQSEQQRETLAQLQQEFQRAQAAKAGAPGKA
# UniProt O15525: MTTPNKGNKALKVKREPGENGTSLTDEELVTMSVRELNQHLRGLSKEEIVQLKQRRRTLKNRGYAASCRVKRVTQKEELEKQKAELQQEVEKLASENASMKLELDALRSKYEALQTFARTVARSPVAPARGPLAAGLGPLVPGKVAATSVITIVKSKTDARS
# UniProt O14841: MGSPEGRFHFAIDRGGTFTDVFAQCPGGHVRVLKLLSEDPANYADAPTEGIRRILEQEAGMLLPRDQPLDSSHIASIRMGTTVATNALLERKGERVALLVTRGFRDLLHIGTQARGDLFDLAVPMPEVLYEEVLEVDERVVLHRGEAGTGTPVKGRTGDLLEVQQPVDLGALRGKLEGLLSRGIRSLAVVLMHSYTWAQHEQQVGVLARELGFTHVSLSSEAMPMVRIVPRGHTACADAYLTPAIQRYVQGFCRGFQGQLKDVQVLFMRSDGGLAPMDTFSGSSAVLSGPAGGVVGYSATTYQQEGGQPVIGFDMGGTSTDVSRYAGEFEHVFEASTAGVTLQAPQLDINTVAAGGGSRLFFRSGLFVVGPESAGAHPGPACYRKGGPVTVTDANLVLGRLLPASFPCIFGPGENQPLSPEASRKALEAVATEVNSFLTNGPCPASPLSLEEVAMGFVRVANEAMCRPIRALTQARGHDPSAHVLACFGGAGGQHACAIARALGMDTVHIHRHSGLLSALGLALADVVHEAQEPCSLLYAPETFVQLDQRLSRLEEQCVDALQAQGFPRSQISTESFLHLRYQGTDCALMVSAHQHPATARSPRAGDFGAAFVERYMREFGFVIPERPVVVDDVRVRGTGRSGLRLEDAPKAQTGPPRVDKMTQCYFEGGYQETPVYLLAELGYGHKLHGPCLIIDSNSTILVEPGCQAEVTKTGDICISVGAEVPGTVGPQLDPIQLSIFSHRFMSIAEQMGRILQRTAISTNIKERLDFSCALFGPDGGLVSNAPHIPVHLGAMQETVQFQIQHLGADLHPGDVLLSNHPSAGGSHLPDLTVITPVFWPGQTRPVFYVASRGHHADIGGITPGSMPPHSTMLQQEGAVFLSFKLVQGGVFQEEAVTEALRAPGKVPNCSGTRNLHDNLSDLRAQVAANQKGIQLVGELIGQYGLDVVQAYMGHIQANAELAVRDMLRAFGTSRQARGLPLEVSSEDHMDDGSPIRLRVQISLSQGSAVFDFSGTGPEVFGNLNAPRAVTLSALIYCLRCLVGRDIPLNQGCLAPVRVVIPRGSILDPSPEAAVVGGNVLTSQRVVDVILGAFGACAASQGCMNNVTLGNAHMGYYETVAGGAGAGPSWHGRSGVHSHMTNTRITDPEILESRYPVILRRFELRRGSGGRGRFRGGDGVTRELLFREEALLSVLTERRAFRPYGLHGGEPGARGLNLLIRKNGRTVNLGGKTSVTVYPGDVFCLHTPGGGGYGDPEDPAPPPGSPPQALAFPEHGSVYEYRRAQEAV
# UniProt O43379: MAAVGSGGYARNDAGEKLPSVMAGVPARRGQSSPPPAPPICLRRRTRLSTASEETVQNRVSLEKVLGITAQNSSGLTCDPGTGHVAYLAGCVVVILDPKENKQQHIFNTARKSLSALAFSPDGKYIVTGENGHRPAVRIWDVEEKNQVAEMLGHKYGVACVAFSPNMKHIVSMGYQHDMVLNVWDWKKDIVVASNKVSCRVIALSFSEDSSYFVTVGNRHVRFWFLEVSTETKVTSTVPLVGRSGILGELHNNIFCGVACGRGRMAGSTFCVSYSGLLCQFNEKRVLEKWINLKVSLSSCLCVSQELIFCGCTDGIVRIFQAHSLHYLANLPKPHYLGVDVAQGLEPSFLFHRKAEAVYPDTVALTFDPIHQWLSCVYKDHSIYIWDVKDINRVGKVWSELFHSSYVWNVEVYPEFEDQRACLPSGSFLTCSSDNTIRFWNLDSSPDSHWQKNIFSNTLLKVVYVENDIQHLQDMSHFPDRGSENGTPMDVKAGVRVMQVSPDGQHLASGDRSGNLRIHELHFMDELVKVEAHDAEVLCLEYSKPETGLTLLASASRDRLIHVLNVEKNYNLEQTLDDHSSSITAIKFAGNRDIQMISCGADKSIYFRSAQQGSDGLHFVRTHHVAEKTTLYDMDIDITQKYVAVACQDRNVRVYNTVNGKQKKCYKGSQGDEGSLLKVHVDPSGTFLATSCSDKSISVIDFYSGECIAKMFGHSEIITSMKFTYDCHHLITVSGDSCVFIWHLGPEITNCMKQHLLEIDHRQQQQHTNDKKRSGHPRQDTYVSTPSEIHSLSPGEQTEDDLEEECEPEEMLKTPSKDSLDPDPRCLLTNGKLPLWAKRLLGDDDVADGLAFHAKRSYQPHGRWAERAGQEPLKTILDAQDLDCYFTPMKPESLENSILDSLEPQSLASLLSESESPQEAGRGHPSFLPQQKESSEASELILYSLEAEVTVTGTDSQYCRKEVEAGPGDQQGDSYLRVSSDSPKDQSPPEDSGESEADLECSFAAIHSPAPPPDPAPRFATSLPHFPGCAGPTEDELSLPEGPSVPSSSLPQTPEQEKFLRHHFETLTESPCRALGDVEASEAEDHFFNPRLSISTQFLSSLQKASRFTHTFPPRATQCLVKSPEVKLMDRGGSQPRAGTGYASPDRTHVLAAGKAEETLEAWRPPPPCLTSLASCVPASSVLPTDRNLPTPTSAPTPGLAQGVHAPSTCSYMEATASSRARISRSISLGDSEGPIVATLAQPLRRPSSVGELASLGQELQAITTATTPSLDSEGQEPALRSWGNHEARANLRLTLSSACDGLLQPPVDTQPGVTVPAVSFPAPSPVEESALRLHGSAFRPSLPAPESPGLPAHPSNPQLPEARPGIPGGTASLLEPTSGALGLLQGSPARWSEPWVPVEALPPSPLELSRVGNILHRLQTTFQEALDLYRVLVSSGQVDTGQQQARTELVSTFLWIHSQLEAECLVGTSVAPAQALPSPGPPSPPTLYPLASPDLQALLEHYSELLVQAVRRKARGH
# UniProt O00567: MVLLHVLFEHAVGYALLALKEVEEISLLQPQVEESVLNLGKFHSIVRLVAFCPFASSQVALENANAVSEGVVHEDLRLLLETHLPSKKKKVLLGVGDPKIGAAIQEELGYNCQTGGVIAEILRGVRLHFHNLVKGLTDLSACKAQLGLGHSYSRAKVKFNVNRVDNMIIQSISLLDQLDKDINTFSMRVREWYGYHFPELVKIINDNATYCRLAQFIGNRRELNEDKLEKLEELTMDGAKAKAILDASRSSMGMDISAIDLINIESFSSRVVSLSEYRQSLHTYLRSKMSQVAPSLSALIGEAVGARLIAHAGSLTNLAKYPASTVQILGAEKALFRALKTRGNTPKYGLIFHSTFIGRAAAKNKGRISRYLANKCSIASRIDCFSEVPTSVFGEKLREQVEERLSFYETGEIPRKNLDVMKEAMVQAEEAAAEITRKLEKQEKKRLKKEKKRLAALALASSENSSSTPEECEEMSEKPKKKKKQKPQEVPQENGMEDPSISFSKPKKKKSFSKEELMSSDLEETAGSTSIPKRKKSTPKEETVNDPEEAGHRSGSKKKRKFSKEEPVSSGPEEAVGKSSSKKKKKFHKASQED
# UniProt O00764: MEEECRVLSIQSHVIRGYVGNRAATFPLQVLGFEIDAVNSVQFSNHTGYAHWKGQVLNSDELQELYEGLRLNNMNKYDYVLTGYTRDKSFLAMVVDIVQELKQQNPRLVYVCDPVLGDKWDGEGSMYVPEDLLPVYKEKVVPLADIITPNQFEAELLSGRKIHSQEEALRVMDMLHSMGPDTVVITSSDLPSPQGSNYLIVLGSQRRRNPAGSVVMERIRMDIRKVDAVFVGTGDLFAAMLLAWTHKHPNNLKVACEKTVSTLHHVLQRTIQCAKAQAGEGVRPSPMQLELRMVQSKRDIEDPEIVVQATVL
# UniProt O43809, whole entry: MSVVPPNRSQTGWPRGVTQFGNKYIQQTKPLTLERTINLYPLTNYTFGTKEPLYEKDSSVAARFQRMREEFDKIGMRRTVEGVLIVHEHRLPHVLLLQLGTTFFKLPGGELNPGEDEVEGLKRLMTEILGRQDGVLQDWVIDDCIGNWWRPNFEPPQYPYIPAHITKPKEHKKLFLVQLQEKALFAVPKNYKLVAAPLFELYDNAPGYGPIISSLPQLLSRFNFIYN
# UniProt O43772: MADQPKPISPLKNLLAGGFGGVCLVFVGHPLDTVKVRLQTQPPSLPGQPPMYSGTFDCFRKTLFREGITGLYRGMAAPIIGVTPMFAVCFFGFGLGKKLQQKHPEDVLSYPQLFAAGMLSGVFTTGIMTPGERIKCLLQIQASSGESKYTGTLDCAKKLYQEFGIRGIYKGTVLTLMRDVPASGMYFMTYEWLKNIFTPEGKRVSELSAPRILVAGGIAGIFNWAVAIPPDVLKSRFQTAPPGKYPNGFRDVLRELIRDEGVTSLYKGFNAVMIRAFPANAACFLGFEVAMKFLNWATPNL
# UniProt O43143: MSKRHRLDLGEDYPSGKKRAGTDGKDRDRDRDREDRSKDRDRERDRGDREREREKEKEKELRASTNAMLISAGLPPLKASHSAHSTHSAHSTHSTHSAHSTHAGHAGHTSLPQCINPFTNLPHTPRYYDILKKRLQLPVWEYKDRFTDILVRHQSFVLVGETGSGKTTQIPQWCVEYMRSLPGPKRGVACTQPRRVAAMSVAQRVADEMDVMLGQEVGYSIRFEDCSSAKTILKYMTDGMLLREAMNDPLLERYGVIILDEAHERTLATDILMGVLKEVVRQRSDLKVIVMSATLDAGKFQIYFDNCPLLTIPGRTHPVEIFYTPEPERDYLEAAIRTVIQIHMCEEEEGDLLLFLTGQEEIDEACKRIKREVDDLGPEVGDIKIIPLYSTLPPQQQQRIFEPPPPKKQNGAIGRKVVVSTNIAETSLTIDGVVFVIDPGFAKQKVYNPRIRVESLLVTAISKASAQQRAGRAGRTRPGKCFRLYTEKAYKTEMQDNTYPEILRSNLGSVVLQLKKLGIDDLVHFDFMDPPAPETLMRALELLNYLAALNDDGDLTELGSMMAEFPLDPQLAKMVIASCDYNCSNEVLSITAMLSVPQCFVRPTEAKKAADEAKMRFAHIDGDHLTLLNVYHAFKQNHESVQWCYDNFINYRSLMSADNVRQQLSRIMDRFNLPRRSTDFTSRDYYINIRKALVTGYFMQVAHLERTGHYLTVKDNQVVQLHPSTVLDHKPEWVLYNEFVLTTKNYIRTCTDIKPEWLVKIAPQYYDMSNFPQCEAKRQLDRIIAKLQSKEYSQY
# UniProt O14776: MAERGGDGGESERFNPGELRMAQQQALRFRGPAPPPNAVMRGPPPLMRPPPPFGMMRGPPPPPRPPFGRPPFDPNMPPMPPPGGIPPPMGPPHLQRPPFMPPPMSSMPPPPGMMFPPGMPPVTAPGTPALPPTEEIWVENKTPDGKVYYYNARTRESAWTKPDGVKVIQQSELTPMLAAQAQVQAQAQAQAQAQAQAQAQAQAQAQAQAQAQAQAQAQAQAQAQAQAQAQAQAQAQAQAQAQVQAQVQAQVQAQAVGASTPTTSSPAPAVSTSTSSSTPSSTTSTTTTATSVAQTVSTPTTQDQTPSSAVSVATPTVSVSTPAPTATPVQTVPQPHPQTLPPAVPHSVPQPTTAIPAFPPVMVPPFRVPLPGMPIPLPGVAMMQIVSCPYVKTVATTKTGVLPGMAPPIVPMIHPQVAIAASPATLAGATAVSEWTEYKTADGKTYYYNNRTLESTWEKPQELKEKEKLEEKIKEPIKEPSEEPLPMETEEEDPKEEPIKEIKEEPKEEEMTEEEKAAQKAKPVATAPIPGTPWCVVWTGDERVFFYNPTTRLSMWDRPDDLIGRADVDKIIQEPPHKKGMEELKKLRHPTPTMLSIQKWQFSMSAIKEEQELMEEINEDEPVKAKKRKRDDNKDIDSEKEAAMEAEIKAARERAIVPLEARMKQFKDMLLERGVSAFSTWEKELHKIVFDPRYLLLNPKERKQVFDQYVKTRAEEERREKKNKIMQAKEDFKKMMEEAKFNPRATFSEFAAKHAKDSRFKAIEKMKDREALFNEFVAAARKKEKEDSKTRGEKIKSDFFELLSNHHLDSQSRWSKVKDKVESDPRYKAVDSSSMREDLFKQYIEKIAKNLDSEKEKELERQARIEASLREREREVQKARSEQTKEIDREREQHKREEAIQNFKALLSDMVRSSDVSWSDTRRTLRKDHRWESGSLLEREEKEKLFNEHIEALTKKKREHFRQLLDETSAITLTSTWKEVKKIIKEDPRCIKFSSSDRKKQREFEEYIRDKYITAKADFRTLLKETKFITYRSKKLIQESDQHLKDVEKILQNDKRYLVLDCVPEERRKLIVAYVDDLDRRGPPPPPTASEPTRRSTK
# ± gives the standard deviation of the averaged measurements. The list shows a part of the results, in another mix than the full data. Most entries show no effect beyond the scatter of the controls.
# Compound: Nc1ncnc2c1ncn2[C@@H]1O[C@H](COP(=O)(O)OP(=O)(O)OP(=O)(O)O)[C@@H](O)[C@H]1O [adenosine triphosphate]
# Test: NP40-soluble protein abundance relative to vehicle (solubility fold change) (ratio); higher = more soluble protein in presence of ATP
# Outline: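 Values are fold changes against the detergent-processed vehicle, based on vsn-normalised intensities. Jurkat crude lysate was treated at eight concentrations from 0.1 to 10 mM (10 min at room temperature, then 3 min at 37 °C), solubilised with 0.8% NP40 and benzonase, ultracentrifuged and analysed by TMT-labelled LC-MS/MS over three independent experiments.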
target,measurement,setting,value
SCAMP1 (UniProt O15126),NP40-soluble protein abundance,concentration: 0.1mM,0.985 ± 0.023
same,NP40-soluble protein abundance,concentration: 0.5mM,1 ± 0.066
UniProt O43324 and related entries,NP40-soluble protein abundance,concentration: 0.1mM,0.915 ± 0.14
same,NP40-soluble protein abundance,concentration: 0.5mM,0.869 ± 0.18
ANKRD28 (UniProt O15084),NP40-soluble protein abundance,concentration: 0.1mM,0.983 ± 0.041
same,NP40-soluble protein abundance,concentration: 0.5mM,1.01 ± 0.034
UniProt O00442 and related entries,NP40-soluble protein abundance,concentration: 0.1mM,1.05 ± 0.053
same,NP40-soluble protein abundance,concentration: 0.5mM,1.05 ± 0.067
UniProt O43251-6|O43251-8,NP40-soluble protein abundance,concentration: 0.1mM,1.14 ± 0.15
same,NP40-soluble protein abundance,concentration: 0.5mM,1.1 ± 0.085
BCAT2 (UniProt O15382),NP40-soluble protein abundance,concentration: 0.1mM,1.06 ± 0.067
same,NP40-soluble protein abundance,concentration: 0.5mM,1.07 ± 0.067
SPTBN2 (UniProt O15020),NP40-soluble protein abundance,concentration: 0.1mM,0.964 ± 0.018
same,NP40-soluble protein abundance,concentration: 0.5mM,0.961 ± 0.034
PDCD5 (UniProt O14737),NP40-soluble protein abundance,concentration: 0.1mM,0.884 ± 0.089
same,NP40-soluble protein abundance,concentration: 0.5mM,0.831 ± 0.076
UniProt O43852 and related entries,NP40-soluble protein abundance,concentration: 0.1mM,0.969 ± 0.017
same,NP40-soluble protein abundance,concentration: 0.5mM,0.974 ± 0.03
UniProt O60337 and related entries,NP40-soluble protein abundance,concentration: 0.1mM,1.16 ± 0.2
same,NP40-soluble protein abundance,concentration: 0.5mM,1.02 ± 0.018
FANCG (UniProt O15287),NP40-soluble protein abundance,concentration: 0.1mM,1.13 ± 0.025
same,NP40-soluble protein abundance,concentration: 0.5mM,0.954 ± 0.14
PFDN6 (UniProt O15212),NP40-soluble protein abundance,concentration: 0.1mM,0.923 ± 0.038
same,NP40-soluble protein abundance,concentration: 0.5mM,0.895 ± 0.046
MAFG (UniProt O15525),NP40-soluble protein abundance,concentration: 0.1mM,0.955 ± 0.083
same,NP40-soluble protein abundance,concentration: 0.5mM,0.885 ± 0.084
UniProt O43670-2|X6R4W8,NP40-soluble protein abundance,concentration: 0.1mM,1.04 ± 0.034
same,NP40-soluble protein abundance,concentration: 0.5mM,1.177 ± 0.0029
OPLAH (UniProt O14841),NP40-soluble protein abundance,concentration: 0.1mM,1.06 ± 0.027
same,NP40-soluble protein abundance,concentration: 0.5mM,1.07 ± 0.052
UniProt O43663 and related entries,NP40-soluble protein abundance,concentration: 0.1mM,1.028 ± 0.01
same,NP40-soluble protein abundance,concentration: 0.5mM,1.01 ± 0.027
M0QZR4 (UniProt Q92888),NP40-soluble protein abundance,concentration: 0.1mM,1.02 ± 0.029
same,NP40-soluble protein abundance,concentration: 0.5mM,1.03 ± 0.035
UniProt O43683 and related entries,NP40-soluble protein abundance,concentration: 0.1mM,1.02 ± 0.052
same,NP40-soluble protein abundance,concentration: 0.5mM,1.01 ± 0.036
DAPK3 (UniProt O43293),NP40-soluble protein abundance,concentration: 0.1mM,1.04 ± 0.06
same,NP40-soluble protein abundance,concentration: 0.5mM,1.1 ± 0.044
UniProt O15151 and related entries,NP40-soluble protein abundance,concentration: 0.1mM,1.28 ± 0.29
same,NP40-soluble protein abundance,concentration: 0.5mM,1.12 ± 0.091
UniProt O43379 and related entries,NP40-soluble protein abundance,concentration: 0.1mM,1.02 ± 0.024
same,NP40-soluble protein abundance,concentration: 0.5mM,1.026 ± 0.0055
UniProt O60333-2|O60333-3,NP40-soluble protein abundance,concentration: 0.1mM,1.01 ± 0.052
same,NP40-soluble protein abundance,concentration: 0.5mM,0.974 ± 0.034
MRPS12 (UniProt O15235),NP40-soluble protein abundance,concentration: 0.1mM,0.882 ± 0.099
same,NP40-soluble protein abundance,concentration: 0.5mM,0.931 ± 0.14
CLIC1 (UniProt O00299),NP40-soluble protein abundance,concentration: 0.1mM,0.959 ± 0.08
same,NP40-soluble protein abundance,concentration: 0.5mM,0.894 ± 0.09
PRPF3 (UniProt O43395),NP40-soluble protein abundance,concentration: 0.1mM,1.09 ± 0.039
same,NP40-soluble protein abundance,concentration: 0.5mM,1.09 ± 0.026
UniProt O15379 and related entries,NP40-soluble protein abundance,concentration: 0.1mM,1.02 ± 0.023
same,NP40-soluble protein abundance,concentration: 0.5mM,1.05 ± 0.036
same,NP40-soluble protein abundance,concentration: 1mM,1 ± 0.019
same,NP40-soluble protein abundance,concentration: 2mM,0.9928 ± 0.0062
same,NP40-soluble protein abundance,concentration: 4mM,0.985 ± 0.04
same,NP40-soluble protein abundance,concentration: 6mM,0.994 ± 0.053
same,NP40-soluble protein abundance,concentration: 8mM,1.04 ± 0.044
same,NP40-soluble protein abundance,concentration: 10mM,1.03 ± 0.065
UniProt O00567,NP40-soluble protein abundance,concentration: 0.1mM,1.02 ± 0.03
same,NP40-soluble protein abundance,concentration: 0.5mM,1.02 ± 0.031
same,NP40-soluble protein abundance,concentration: 1mM,1.04 ± 0.038
same,NP40-soluble protein abundance,concentration: 2mM,1.1 ± 0.033
same,NP40-soluble protein abundance,concentration: 4mM,1.24 ± 0.02
same,NP40-soluble protein abundance,concentration: 6mM,1.38 ± 0.06
same,NP40-soluble protein abundance,concentration: 8mM,1.68 ± 0.064
same,NP40-soluble protein abundance,concentration: 10mM,2.11 ± 0.2
HIP1 (UniProt O00291),NP40-soluble protein abundance,concentration: 0.1mM,1.02 ± 0.038
same,NP40-soluble protein abundance,concentration: 0.5mM,1.02 ± 0.015
UniProt O43865,NP40-soluble protein abundance,concentration: 0.1mM,0.989 ± 0.069
same,NP40-soluble protein abundance,concentration: 0.5mM,1.03 ± 0.034
same,NP40-soluble protein abundance,concentration: 1mM,0.982 ± 0.1
same,NP40-soluble protein abundance,concentration: 2mM,0.965 ± 0.063
same,NP40-soluble protein abundance,concentration: 4mM,0.963 ± 0.076
same,NP40-soluble protein abundance,concentration: 6mM,0.973 ± 0.1
same,NP40-soluble protein abundance,concentration: 8mM,0.96 ± 0.081
same,NP40-soluble protein abundance,concentration: 10mM,0.969 ± 0.043
UniProt O14662-2|O14662-4|O14662-5,NP40-soluble protein abundance,concentration: 0.1mM,0.942 ± 0.076
same,NP40-soluble protein abundance,concentration: 0.5mM,0.928 ± 0.066
same,NP40-soluble protein abundance,concentration: 1mM,0.98 ± 0.066
same,NP40-soluble protein abundance,concentration: 2mM,0.94 ± 0.042
same,NP40-soluble protein abundance,concentration: 4mM,0.993 ± 0.044
same,NP40-soluble protein abundance,concentration: 6mM,0.974 ± 0.037
same,NP40-soluble protein abundance,concentration: 8mM,0.983 ± 0.034
same,NP40-soluble protein abundance,concentration: 10mM,0.921 ± 0.068
PDXK (UniProt O00764),NP40-soluble protein abundance,concentration: 0.1mM,1.05 ± 0.061
same,NP40-soluble protein abundance,concentration: 0.5mM,1.02 ± 0.063
same,NP40-soluble protein abundance,concentration: 1mM,1.02 ± 0.12
same,NP40-soluble protein abundance,concentration: 2mM,0.987 ± 0.058
same,NP40-soluble protein abundance,concentration: 4mM,1.01 ± 0.066
same,NP40-soluble protein abundance,concentration: 6mM,0.935 ± 0.14
same,NP40-soluble protein abundance,concentration: 8mM,0.989 ± 0.058
same,NP40-soluble protein abundance,concentration: 10mM,0.981 ± 0.051
TRIM38 (UniProt O00635),NP40-soluble protein abundance,concentration: 0.1mM,1.06 ± 0.039
same,NP40-soluble protein abundance,concentration: 0.5mM,1.04 ± 0.022
same,NP40-soluble protein abundance,concentration: 1mM,0.949 ± 0.053
same,NP40-soluble protein abundance,concentration: 2mM,1 ± 0.018
same,NP40-soluble protein abundance,concentration: 4mM,0.988 ± 0.041
same,NP40-soluble protein abundance,concentration: 6mM,0.955 ± 0.046
same,NP40-soluble protein abundance,concentration: 8mM,0.986 ± 0.034
same,NP40-soluble protein abundance,concentration: 10mM,0.993 ± 0.045
UniProt O15530 and related entries,NP40-soluble protein abundance,concentration: 0.1mM,1.07 ± 0.013
same,NP40-soluble protein abundance,concentration: 0.5mM,1.03 ± 0.028
MAN2B1 (UniProt O00754),NP40-soluble protein abundance,concentration: 0.1mM,0.972 ± 0.053
same,NP40-soluble protein abundance,concentration: 0.5mM,0.956 ± 0.033
same,NP40-soluble protein abundance,concentration: 1mM,0.94 ± 0.027
same,NP40-soluble protein abundance,concentration: 2mM,0.948 ± 0.017
same,NP40-soluble protein abundance,concentration: 4mM,0.957 ± 0.023
same,NP40-soluble protein abundance,concentration: 6mM,0.887 ± 0.057
same,NP40-soluble protein abundance,concentration: 8mM,0.917 ± 0.038
same,NP40-soluble protein abundance,concentration: 10mM,0.93 ± 0.018
M0R042 and related entries (UniProt P04350),NP40-soluble protein abundance,concentration: 0.1mM,1.01 ± 0.024
same,NP40-soluble protein abundance,concentration: 0.5mM,1.01 ± 0.036
same,NP40-soluble protein abundance,concentration: 1mM,1.01 ± 0.089
same,NP40-soluble protein abundance,concentration: 2mM,0.962 ± 0.037
same,NP40-soluble protein abundance,concentration: 4mM,1.02 ± 0.034
same,NP40-soluble protein abundance,concentration: 6mM,0.934 ± 0.058
same,NP40-soluble protein abundance,concentration: 8mM,1.02 ± 0.018
same,NP40-soluble protein abundance,concentration: 10mM,0.955 ± 0.071
UniProt O15265 and related entries,NP40-soluble protein abundance,concentration: 0.1mM,0.9 ± 0.017
same,NP40-soluble protein abundance,concentration: 0.5mM,0.898 ± 0.17
NUDT21 (UniProt O43809),NP40-soluble protein abundance,concentration: 0.1mM,1.06 ± 0.025
same,NP40-soluble protein abundance,concentration: 0.5mM,1.55 ± 0.033
same,NP40-soluble protein abundance,concentration: 1mM,1.95 ± 0.11
same,NP40-soluble protein abundance,concentration: 2mM,2.06 ± 0.064
same,NP40-soluble protein abundance,concentration: 4mM,2.18 ± 0.1
same,NP40-soluble protein abundance,concentration: 6mM,2.25 ± 0.052
same,NP40-soluble protein abundance,concentration: 8mM,2.31 ± 0.1
same,NP40-soluble protein abundance,concentration: 10mM,2.213 ± 0.019
SLC25A20 (UniProt O43772),NP40-soluble protein abundance,concentration: 0.1mM,0.946 ± 0.072
same,NP40-soluble protein abundance,concentration: 0.5mM,0.949 ± 0.094
same,NP40-soluble protein abundance,concentration: 1mM,0.918 ± 0.088
same,NP40-soluble protein abundance,concentration: 2mM,0.945 ± 0.037
same,NP40-soluble protein abundance,concentration: 4mM,0.943 ± 0.012
same,NP40-soluble protein abundance,concentration: 6mM,0.822 ± 0.099
same,NP40-soluble protein abundance,concentration: 8mM,0.884 ± 0.028
same,NP40-soluble protein abundance,concentration: 10mM,0.974 ± 0.0095
DHX15 (UniProt O43143),NP40-soluble protein abundance,concentration: 0.1mM,1.09 ± 0.047
same,NP40-soluble protein abundance,concentration: 0.5mM,1.25 ± 0.052
same,NP40-soluble protein abundance,concentration: 1mM,1.25 ± 0.079
same,NP40-soluble protein abundance,concentration: 2mM,1.24 ± 0.071
same,NP40-soluble protein abundance,concentration: 4mM,1.24 ± 0.079
same,NP40-soluble protein abundance,concentration: 6mM,1.24 ± 0.1
same,NP40-soluble protein abundance,concentration: 8mM,1.33 ± 0.074
same,NP40-soluble protein abundance,concentration: 10mM,1.29 ± 0.044
SPTLC1 (UniProt O15269),NP40-soluble protein abundance,concentration: 0.1mM,1.01 ± 0.054
same,NP40-soluble protein abundance,concentration: 0.5mM,1 ± 0.035
same,NP40-soluble protein abundance,concentration: 1mM,0.993 ± 0.026
same,NP40-soluble protein abundance,concentration: 2mM,0.998 ± 0.032
same,NP40-soluble protein abundance,concentration: 4mM,0.997 ± 0.027
same,NP40-soluble protein abundance,concentration: 6mM,0.93 ± 0.096
same,NP40-soluble protein abundance,concentration: 8mM,0.998 ± 0.024
same,NP40-soluble protein abundance,concentration: 10mM,1 ± 0.049
UniProt O14776 and related entries,NP40-soluble protein abundance,concentration: 0.1mM,0.989 ± 0.029
same,NP40-soluble protein abundance,concentration: 0.5mM,1.01 ± 0.057
same,NP40-soluble protein abundance,concentration: 1mM,0.972 ± 0.011
same,NP40-soluble protein abundance,concentration: 2mM,0.9735 ± 0.0036
same,NP40-soluble protein abundance,concentration: 4mM,0.959 ± 0.024
same,NP40-soluble protein abundance,concentration: 6mM,1.03 ± 0.021
same,NP40-soluble protein abundance,concentration: 8mM,1.01 ± 0.024
same,NP40-soluble protein abundance,concentration: 10mM,1.02 ± 0.013

# Rewritten tab-delimited: part of the list above.
target	measurement	setting	value
MRPS12 (UniProt O15235)	NP40-soluble protein abundance	concentration: 0.1mM	0.882 ± 0.099
MAN2B1 (UniProt O00754)	NP40-soluble protein abundance	concentration: 2mM	0.948 ± 0.017
UniProt O14776 and related entries	NP40-soluble protein abundance	concentration: 10mM	1.02 ± 0.013

# 4 records drawn at random from those above, as already listed:
target,measurement,setting,value
DHX15 (UniProt O43143),NP40-soluble protein abundance,concentration: 1mM,1.25 ± 0.079
SLC25A20 (UniProt O43772),NP40-soluble protein abundance,concentration: 6mM,0.822 ± 0.099
UniProt O15379 and related entries,NP40-soluble protein abundance,concentration: 10mM,1.03 ± 0.065
same,NP40-soluble protein abundance,concentration: 1mM,1 ± 0.019

# Reformatted tab-delimited: entries from further up.
target	measurement	setting	value
SLC25A20 (UniProt O43772)	NP40-soluble protein abundance	concentration: 8mM	0.884 ± 0.028
same	NP40-soluble protein abundance	concentration: 10mM	0.974 ± 0.0095
